Experiment [1] addresses recombinant Anxa1-His6 protein. Briefly: condition: about 250 ng/well of coated Anxa1-His (last tick label cut off); fluorescence plate assay: wells coated with rising amounts of Anxa1-His, labelled peptide added, washed, FI (FRU) read.
Experiment [2] has as its target recombinant Anxa1-His6 protein. Briefly: plate assay, fluorescent peptide on wells coated with Anxa1-His6.
For experiment [3], the target named is recombinant Anxa1-His6 protein. Briefly: fluorescence plate assay: wells coated with rising amounts of Anxa1-His, labelled peptide added, washed, FI (FRU) read.

Binding data for two molecules are collected here from patent US20120251453A1 (SANFORD BURNHAM MEDICAL RESEARCH INSTITUTE, published 2012).

No constants are given. Whether binding was seen depends on the method and setting. For some of these results: Binding can be weak; no strength is given.

As for RQWLLFI (conjugated with Alexa 488; site of attachment not stated) [RQ7-A488 (Alexa 488 conjugated with RQWLLFI or reverse IF7)], the binding result in experiment [1] and in experiment [2] was “no binding” each time.
As to IFLLWQRC (Alexa fluor 488 C5-maleimide conjugated to IF7C (the C-terminal Cys)) [IF7-A488 (chemically synthesized IF7 conjugated with fluorescent Alexa 488)], the binding entry in experiment [3] and in experiment [2] was “binds” each time.
